Measured values as given in patent publication US20030175730, “Multivalent RNA aptamers and their expression in multicellular organisms” (published 2003).
For some assays here: Weaker means in comparison with the reference protein, sequence or condition of that experiment. Where a protein sequence is shown, tags need not be part of it.

Key:
[1] = target: T1, B52 (SRp55) full length (Drosophila melanogaster) (UniProt P26686); assay: EMSA; conditions: purified recombinant protein, protein details: baculovirus/Sf9 expressed, SR protein purification, label: 32P-UTP
T1 sequence (looked up): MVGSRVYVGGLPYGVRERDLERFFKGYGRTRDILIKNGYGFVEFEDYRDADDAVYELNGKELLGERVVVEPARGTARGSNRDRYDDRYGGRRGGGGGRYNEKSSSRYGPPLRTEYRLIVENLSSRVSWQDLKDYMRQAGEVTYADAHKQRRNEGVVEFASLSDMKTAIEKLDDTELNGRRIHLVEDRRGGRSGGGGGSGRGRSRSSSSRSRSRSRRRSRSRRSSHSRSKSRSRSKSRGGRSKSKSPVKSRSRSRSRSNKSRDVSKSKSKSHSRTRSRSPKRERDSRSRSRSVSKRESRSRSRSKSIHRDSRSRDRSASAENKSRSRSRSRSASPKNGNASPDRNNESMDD

[2] = target: T1, B52 (SRp55) full length (Drosophila melanogaster); assay: inhibition of the protein; conditions: inhibits B52-dependent ftz pre-mRNA splicing in S100 extract; restored by extra B52; purified recombinant protein; protein details: baculovirus/Sf9 expressed, SR protein purification; dose not given here
[3] = target: T2, B52 endogenous/overexpressed (Drosophila melanogaster) (UniProt P26686); assay: activity in cells; conditions: B52 recruited to transgene puff; suppresses B52 overexpression phenotypes in flies; protein in cells; dose not given here
T2 sequence (looked up, limits assumed): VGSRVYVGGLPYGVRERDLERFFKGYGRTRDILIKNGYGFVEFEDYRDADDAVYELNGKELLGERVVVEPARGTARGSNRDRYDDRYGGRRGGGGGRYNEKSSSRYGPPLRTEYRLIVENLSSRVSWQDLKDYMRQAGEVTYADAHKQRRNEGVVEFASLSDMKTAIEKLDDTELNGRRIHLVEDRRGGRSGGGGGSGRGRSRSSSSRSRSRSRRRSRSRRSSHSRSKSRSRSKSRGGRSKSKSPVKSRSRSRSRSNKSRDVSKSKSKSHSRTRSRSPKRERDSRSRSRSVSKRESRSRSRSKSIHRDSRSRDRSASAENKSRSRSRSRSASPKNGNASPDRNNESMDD

GGACUGUCAACCAGGCGACAGU [bbs-II/5'Stem]: binds more weakly ([1]; weak binder, one conserved flanking G, variant of bbs-II).
GGAUGUCAACCAGGCGACAUCC [TransBBS-I]: binds more weakly ([1]; poor binding, conserved flanking Gs replaced, variant of BBS-I).
“GGCAUGAAUCAACCAGGCGACGCAUGCC [FlipBBS-II]”: binds more weakly ([1]; poor binding, conserved flanking Gs replaced, variant of BBS-II).
In the case of “GCGGCCGCCUCCGCGGCCGCCUGAUGAGUCCGUGAGGACGAAACAUGCAUGUCGAGAGUACGAUCAACCAGGCGACAGUACUCUCGACGAUCAACCAGGCGACAGUGGCUGGUCAACCAGGCGACCGCCACUGCAGGGUAACGGUCAACCAGGCGACCGUUACCCGGACGGUCAACCAGGCGACCGUUGACUUCGGUCAGUCGAGAUGCAUGUC [mature pentavalent BBS(5) aptamer]”, the “functional effect of the aptamer” value [2] is reported as “active” and the “functional effect of the aptamer” value [3] is reported as “active”.
